Test results taken from the M2OR odorant receptor database.
The list shows a part of the results, in another mix than the full data. Calls are pooled over several reports, among them a noisy single-well screen. This is one part of the list.

Key:
Conditions in all cases: stereoisomer not certain
[1] = system: T1, OR2C3
T1 sequence (whole entry): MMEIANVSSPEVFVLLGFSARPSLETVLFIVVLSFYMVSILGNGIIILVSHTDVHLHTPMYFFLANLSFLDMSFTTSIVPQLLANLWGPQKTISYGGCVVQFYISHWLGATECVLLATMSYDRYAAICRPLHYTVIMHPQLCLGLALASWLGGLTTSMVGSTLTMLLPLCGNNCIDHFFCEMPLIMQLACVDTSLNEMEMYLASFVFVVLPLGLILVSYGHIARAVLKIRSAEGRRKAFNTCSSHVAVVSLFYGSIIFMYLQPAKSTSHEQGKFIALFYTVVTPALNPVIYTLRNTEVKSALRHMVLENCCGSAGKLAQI
How it was run: (§1)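 Values were gathered from published papers (main text and supplementary material), with extra details requested from the original authors when needed, and checked for typos and inconsistencies. Each receptor–molecule pair is called responsive (active) if the original authors judged the measured signal statistically different from baseline, and non-responsive (inactive) otherwise. Assay methods varied by source, often transient mammalian cell-line luciferase assays. Recorded details include cell line, G-protein, co-transfected protein and tags.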

[2] = target: T2, OR2D2 (Homo sapiens) (UniProt Q9H210)
T2 sequence (whole entry): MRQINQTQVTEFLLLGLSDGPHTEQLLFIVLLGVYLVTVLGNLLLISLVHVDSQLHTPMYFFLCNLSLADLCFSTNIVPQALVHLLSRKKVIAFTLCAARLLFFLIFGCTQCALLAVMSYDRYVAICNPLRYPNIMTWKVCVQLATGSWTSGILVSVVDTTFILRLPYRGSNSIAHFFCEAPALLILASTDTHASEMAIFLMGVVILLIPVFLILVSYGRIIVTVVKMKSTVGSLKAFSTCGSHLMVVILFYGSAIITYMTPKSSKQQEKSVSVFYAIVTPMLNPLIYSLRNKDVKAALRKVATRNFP
How it was run: as §1

[3] = system: T3, OR2D3
T3 sequence (whole entry): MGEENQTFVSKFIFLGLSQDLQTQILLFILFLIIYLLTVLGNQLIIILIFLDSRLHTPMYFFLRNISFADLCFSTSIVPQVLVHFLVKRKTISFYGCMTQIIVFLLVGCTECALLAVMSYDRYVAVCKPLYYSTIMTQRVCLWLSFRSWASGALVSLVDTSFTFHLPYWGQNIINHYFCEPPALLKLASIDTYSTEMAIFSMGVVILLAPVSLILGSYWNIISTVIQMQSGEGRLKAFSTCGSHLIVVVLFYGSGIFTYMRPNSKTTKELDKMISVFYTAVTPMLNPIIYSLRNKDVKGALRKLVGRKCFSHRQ
How it was run: as §1

[4] = target: T4, OR2F1 (Homo sapiens) (UniProt Q13607)
T4 sequence (whole entry): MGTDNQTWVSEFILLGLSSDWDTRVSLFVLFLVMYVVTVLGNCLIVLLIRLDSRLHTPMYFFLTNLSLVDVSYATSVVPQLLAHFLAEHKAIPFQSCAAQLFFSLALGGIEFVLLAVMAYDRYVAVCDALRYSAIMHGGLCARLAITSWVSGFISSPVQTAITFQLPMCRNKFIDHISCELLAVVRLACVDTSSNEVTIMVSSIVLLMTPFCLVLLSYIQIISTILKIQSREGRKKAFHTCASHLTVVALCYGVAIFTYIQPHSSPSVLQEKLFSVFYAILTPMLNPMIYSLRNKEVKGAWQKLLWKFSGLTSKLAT
How it was run: as §1

[5] = system: T5, OR2F2
T5 sequence (whole entry): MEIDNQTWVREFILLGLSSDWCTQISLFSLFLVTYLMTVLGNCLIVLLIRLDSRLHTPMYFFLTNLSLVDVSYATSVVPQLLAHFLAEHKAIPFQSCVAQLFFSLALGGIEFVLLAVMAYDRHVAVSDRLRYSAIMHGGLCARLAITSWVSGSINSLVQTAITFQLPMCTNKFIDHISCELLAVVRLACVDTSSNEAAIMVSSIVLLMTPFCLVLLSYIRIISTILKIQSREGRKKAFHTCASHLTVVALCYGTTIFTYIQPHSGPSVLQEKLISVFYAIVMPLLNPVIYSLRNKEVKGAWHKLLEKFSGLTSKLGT
How it was run: as §1

[6] = system: T6, OR2G2
T6 sequence (whole entry): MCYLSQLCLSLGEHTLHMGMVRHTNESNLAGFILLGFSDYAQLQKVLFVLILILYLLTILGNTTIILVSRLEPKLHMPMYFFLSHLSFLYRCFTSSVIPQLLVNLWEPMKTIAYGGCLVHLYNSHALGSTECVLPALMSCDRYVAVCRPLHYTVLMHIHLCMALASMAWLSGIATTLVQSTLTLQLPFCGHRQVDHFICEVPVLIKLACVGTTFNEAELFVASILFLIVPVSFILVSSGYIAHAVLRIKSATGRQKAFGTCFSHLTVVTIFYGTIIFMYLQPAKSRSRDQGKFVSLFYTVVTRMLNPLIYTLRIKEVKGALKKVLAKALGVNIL
How it was run: as §1

[7] = system: T7, OR2G2; remark: listed apart in the source
T7 sequence (whole entry): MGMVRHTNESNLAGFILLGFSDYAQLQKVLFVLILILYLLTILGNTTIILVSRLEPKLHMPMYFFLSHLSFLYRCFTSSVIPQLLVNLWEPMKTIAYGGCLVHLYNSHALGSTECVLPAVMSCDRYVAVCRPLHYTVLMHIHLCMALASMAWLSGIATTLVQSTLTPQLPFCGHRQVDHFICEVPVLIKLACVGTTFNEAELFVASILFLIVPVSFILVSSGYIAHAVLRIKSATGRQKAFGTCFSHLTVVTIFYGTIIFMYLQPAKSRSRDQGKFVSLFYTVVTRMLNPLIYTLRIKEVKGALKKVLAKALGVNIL
How it was run: as §1

[8] = target: T8, OR2G3 (Homo sapiens) (UniProt Q8NGZ4)
T8 sequence (whole entry): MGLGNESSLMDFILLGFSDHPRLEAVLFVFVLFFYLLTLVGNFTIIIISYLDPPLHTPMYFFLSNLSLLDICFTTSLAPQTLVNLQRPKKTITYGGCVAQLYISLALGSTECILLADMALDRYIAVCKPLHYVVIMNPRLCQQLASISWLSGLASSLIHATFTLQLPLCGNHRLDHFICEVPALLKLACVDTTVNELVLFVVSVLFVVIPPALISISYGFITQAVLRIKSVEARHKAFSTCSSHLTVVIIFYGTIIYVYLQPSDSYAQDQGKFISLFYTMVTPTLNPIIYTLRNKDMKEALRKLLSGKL
How it was run: as §1

[9] = system: T9, OR2G3
T9 sequence (whole entry): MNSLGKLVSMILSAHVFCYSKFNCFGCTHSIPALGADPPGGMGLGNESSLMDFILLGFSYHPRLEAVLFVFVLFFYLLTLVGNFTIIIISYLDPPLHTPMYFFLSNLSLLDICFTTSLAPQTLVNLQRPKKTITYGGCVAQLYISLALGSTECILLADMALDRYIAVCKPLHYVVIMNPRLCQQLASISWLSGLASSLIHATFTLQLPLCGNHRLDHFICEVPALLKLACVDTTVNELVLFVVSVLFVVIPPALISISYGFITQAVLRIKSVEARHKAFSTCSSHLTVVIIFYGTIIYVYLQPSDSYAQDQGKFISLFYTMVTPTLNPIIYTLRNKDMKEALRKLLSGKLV
How it was run: as §1

[10] = target: T10, OR2G6 (Homo sapiens) (UniProt Q5TZ20)
T10 sequence (whole entry): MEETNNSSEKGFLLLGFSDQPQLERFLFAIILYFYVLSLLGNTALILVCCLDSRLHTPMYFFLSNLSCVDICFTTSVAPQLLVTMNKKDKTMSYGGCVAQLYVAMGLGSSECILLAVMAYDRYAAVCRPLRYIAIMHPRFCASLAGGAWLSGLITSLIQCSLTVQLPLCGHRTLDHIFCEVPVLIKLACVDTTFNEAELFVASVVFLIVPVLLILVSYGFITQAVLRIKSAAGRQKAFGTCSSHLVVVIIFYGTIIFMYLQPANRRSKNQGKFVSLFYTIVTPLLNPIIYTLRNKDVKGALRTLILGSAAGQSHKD
How it was run: as §1

[11] = target: T11, OR2H1 (Homo sapiens) (UniProt Q9GZK4)
T11 sequence (whole entry): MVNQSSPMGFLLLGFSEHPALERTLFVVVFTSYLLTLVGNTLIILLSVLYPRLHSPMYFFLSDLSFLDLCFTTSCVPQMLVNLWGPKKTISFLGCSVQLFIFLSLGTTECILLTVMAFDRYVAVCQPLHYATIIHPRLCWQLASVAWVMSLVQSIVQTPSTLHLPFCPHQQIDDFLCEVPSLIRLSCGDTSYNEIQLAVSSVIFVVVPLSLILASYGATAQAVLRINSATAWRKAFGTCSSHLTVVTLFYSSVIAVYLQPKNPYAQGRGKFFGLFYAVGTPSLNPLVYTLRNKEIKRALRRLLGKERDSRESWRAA
How it was run: as §1

[12] = system: T12, OR2H2
T12 sequence (whole entry): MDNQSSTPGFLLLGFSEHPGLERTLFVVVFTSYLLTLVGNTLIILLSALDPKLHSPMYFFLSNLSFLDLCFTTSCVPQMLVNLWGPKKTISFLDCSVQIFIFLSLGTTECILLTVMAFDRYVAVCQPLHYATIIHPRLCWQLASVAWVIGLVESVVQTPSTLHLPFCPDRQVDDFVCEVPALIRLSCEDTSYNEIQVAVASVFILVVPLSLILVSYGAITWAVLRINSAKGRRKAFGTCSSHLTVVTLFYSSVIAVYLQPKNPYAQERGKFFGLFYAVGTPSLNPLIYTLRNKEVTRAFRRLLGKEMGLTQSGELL
How it was run: as §1

[13] = target: T13, OR2H2 (Homo sapiens) (UniProt O95918)
T13 sequence (whole entry): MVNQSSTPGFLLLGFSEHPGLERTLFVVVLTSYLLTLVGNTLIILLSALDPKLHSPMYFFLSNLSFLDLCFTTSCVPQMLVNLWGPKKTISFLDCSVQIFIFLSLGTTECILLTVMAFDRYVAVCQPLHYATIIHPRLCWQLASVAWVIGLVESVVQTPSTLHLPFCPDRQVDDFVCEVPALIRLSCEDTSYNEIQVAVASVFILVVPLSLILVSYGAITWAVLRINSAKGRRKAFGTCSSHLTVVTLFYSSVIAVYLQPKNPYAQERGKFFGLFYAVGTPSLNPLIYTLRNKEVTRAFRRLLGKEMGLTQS
How it was run: as §1

Measured: odorant receptor agonist call

CC12CCC(C1)C(C)(C)C2=O (stereo unspecified)
not listed: [13]
inactive: all other assays above

O=C1CCCCC1
not listed: [1] | [2] | [13]
inactive: all other assays above

CCCCO
not listed: [13]
inactive: all other assays above

CCCC(=O)O
not listed: [13]
inactive: all other assays above

O=CCc1ccccc1
active: [2]
not listed: [13]
inactive: all other assays above

CC(C)(C)c1ccc(CCC=O)cc1
active: [2]
not listed: [13]
inactive: all other assays above

CCC=CCCO
active: [1]
not listed: [13]
inactive: all other assays above

CC(=O)c1ccccc1
not listed: [1] | [2] | [13]
inactive: all other assays above

COc1cc(C=O)ccc1O
not listed: [13]
inactive: all other assays above

COc1ccccc1O
not listed: [13]
inactive: all other assays above

COC(=O)c1ccccc1
not listed: [1] | [2] | [13]
inactive: all other assays above

CCCCCCCCC=O
active: [13]

COc1cc(C)ccc1O
not listed: [13]
inactive: all other assays above

CCC1(O)C2(C)CCC(C2)C1(C)C (stereo unspecified)
not listed: [13]
inactive: all other assays above
